No constants are given. Whether binding was seen depends on the method and setting. Some binding calls cover weakened binding; strength is not graded here. Blank lines part the entries; values can stand above or below the binder they belong to.
How the values were obtained:
ROR2 protein = ROR2 protein (UniProt Q01974); test: ELISA, OD450 against Fab concentration
[1] = molecular target: ROR2 extracellular protein (UniProt Q01974); test: ELISA on plate coated with ROR2 extracellular protein, OD450
[2] = molecular target: ROR2 mutant with the deletion of the d-Kinase region, flag-tagged (B5) (human) (UniProt Q01974); test: western blot of lysate of 293T cells transfected with B5
[3] = molecular target: full length of the ROR2 protein (hROR2), flag-tagged (B1) (human) (UniProt Q01974); test: flow cytometry of 293T-R2-KO cells transfected with B1
[4] = molecular target: full length of the ROR2 protein (hROR2), flag-tagged (B1) (human) (UniProt Q01974); test: immunoprecipitation and immunoblot, lysate of 293T cells overexpressing Flag-tagged ROR2
[5] = molecular target: ROR2 mutant with the deletion of the d-CRD region, flag-tagged (B3) (human) (UniProt Q01974); test: western blot of lysate of 293T cells transfected with B3
[6] = molecular target: ROR2 mutant with the deletion of the d-Ig-like region, flag-tagged (B2) (human) (UniProt Q01974); test: flow cytometry of 293T-R2-KO cells transfected with B2
[7] = molecular target: ROR2 mutant with the deletion of the d-Ig-like region, flag-tagged (B2) (human) (UniProt Q01974); test: western blot of lysate of 293T cells transfected with B2
[8] = molecular target: full length of the ROR2 protein (hROR2), flag-tagged (B1) (human) (UniProt Q01974); test: immunoprecipitation, overexpressed Flag-tagged ROR2
[9] = molecular target: ROR2 mutant with the deletion of the d-S/T1 region, flag-tagged (B7) (human) (UniProt Q01974); test: western blot of lysate of 293T cells transfected with B7
[10] = molecular target: full length of the ROR2 protein (hROR2), flag-tagged (B1) (human) (UniProt Q01974); test: western blot of lysate of 293T cells transfected with B1
[11] = molecular target: ROR2 mutant with the three mutations Y641, 645, and 646F, flag-tagged (B8) (human) (UniProt Q01974); test: western blot of lysate of 293T cells transfected with B8
[12] = molecular target: ROR2 mutant with the deletion of the d-CRD region, flag-tagged (B3) (human) (UniProt Q01974); test: flow cytometry of 293T-R2-KO cells transfected with B3

The chains behind the UniProt entries cited, without tags or fusion partners. Where a name states a change or a piece, a line headed by the entry shows the natural chain unless it says otherwise. A line that says so, or that is headed by a name, gives the form on record, which may keep a tag or linker. Residues count along the entry.
ROR2 extracellular protein (Q01974, residues 34-403): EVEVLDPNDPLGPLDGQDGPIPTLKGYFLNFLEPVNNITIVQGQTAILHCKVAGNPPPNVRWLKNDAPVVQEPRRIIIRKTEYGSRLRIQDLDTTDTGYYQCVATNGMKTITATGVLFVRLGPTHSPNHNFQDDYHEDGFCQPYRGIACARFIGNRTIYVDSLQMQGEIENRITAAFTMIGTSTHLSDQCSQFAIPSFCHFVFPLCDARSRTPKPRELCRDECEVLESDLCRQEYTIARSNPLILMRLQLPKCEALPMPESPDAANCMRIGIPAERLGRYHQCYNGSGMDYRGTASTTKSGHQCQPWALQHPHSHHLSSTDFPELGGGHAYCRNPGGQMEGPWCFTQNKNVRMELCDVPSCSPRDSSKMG
ROR2 mutant with the deletion of the d-Kinase region, flag-tagged (B5) (Q01974, form named): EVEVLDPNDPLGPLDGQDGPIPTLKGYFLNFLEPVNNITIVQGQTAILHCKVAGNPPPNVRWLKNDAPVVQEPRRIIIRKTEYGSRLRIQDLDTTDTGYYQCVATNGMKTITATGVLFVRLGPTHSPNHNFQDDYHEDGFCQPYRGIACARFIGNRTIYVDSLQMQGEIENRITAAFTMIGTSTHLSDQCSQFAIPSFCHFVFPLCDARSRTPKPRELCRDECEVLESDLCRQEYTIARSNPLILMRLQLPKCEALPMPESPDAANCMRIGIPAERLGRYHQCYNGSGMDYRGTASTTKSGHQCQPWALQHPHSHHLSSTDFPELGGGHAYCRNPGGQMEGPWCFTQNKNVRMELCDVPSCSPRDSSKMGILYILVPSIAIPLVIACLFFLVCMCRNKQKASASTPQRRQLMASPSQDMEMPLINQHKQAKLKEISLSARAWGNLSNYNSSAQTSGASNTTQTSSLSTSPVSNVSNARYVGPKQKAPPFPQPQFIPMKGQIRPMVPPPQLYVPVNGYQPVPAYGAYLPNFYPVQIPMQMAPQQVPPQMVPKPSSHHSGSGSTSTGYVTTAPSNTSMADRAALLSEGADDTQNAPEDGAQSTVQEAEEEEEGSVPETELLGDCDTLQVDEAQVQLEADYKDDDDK
full length of the ROR2 protein (hROR2), flag-tagged (B1) (Q01974, form named): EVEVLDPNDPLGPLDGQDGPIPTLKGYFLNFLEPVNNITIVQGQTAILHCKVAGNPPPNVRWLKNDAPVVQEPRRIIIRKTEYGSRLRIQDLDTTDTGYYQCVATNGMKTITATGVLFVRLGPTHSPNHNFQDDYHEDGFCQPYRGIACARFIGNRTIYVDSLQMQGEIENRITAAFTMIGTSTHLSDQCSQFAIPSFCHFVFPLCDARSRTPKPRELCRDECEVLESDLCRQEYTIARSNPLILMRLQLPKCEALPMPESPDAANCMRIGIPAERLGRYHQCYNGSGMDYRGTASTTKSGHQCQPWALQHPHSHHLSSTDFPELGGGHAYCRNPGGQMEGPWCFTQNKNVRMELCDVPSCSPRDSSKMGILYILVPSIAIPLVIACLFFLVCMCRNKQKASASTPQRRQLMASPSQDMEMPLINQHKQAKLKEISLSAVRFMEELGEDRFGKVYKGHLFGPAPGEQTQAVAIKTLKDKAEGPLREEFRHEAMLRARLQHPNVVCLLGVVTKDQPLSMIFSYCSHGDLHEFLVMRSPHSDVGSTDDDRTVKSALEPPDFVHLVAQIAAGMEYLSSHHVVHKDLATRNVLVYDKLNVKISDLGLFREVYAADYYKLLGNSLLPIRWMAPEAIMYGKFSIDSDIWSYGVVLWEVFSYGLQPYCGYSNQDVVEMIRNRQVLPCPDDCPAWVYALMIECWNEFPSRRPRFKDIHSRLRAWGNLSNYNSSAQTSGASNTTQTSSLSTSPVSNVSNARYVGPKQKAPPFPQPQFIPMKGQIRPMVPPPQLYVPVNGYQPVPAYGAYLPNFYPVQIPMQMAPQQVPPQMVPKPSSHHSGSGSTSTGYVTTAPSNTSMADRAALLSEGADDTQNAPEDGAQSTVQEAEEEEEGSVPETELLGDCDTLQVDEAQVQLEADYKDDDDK
ROR2 mutant with the deletion of the d-CRD region, flag-tagged (B3) (Q01974, form named): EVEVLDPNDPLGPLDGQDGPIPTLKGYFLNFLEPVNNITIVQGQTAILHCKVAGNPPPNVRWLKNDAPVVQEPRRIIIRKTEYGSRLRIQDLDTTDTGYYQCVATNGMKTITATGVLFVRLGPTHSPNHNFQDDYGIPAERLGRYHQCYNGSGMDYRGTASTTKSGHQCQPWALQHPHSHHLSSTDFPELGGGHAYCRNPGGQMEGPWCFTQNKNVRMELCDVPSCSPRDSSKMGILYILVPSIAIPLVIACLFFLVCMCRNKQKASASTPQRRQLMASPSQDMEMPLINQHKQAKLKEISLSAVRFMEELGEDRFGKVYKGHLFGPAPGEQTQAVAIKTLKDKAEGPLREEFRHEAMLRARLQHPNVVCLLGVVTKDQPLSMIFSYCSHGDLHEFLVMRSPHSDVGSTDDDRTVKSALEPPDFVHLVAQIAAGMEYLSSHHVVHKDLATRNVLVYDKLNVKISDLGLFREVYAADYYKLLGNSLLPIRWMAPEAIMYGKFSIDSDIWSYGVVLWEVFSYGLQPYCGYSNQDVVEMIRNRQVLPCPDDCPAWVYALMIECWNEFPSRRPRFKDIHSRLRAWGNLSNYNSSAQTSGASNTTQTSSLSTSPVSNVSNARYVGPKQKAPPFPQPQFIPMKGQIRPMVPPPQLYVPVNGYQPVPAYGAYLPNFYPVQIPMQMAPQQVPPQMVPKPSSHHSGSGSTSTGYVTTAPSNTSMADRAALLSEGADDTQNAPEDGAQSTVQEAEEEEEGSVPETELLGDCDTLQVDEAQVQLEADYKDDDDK
ROR2 mutant with the deletion of the d-Ig-like region, flag-tagged (B2) (Q01974, form named): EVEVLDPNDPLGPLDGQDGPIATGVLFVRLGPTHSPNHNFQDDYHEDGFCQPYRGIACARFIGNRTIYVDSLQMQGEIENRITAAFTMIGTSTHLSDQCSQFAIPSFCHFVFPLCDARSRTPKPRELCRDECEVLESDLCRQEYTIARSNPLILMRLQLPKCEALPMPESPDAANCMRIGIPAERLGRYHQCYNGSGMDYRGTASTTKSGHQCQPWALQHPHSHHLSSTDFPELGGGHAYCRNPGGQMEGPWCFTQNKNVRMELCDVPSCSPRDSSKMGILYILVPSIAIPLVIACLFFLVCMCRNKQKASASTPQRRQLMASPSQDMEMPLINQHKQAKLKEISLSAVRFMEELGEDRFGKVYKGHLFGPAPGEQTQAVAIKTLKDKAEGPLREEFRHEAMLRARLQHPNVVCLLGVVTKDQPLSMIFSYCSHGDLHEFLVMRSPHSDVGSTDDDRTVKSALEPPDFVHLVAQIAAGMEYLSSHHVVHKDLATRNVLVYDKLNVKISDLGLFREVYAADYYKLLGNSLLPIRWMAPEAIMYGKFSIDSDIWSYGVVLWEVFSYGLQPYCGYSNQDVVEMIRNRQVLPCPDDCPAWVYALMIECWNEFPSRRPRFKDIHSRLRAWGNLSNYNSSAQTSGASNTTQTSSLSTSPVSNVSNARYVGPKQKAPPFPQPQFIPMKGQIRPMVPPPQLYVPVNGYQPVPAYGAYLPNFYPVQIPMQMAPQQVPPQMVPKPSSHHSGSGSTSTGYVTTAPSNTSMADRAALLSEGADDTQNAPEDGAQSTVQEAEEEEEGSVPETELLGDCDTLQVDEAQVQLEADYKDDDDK
ROR2 mutant with the deletion of the d-S/T1 region, flag-tagged (B7) (Q01974, form named): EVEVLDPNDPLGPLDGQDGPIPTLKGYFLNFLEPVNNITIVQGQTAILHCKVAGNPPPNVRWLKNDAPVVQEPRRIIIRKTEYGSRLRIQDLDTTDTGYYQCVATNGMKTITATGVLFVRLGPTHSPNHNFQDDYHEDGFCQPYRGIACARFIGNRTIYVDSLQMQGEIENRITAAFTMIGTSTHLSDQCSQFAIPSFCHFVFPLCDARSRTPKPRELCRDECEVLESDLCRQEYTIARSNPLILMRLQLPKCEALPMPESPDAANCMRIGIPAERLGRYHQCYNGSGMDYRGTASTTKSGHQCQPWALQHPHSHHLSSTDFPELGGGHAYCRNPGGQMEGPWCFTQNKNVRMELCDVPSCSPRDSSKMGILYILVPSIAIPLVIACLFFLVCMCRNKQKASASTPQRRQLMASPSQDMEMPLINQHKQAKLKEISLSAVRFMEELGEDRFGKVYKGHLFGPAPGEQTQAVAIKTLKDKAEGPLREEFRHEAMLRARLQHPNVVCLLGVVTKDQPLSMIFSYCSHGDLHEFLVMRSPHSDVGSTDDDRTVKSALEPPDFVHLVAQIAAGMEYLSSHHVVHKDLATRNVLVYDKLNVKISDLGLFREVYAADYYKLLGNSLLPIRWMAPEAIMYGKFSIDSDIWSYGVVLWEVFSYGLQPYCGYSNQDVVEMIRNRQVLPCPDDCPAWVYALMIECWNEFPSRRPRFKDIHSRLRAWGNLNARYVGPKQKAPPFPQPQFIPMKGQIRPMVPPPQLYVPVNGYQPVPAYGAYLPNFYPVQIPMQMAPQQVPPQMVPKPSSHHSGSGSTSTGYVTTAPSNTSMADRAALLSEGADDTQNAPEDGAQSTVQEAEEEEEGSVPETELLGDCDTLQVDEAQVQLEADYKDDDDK
ROR2 mutant with the three mutations Y641, 645, and 646F, flag-tagged (B8) (Q01974, form named): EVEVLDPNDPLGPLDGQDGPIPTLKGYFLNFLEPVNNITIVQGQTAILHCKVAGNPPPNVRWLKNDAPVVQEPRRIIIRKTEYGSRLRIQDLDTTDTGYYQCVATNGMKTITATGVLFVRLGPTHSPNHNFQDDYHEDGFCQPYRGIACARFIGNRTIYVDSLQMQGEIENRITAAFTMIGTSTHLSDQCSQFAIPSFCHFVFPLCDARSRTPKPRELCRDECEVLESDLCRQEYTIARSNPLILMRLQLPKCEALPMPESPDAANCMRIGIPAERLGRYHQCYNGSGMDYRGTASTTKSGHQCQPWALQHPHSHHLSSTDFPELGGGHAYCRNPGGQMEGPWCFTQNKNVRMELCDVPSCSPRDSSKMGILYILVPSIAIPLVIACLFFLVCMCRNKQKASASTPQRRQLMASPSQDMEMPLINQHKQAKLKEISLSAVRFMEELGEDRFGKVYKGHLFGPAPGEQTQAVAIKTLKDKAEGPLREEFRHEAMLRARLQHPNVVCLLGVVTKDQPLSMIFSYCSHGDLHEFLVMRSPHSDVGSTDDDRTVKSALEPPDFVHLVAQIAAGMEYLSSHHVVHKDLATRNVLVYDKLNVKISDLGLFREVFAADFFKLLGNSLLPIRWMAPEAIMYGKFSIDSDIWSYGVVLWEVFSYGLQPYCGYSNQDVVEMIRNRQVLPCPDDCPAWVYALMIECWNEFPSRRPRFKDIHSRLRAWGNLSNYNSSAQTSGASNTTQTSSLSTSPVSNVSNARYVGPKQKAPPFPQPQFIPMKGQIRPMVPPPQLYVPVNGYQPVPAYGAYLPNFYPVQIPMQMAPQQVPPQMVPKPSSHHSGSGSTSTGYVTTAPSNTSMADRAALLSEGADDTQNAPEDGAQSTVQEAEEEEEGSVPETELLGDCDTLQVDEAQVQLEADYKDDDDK

binding (ROR2 protein): binds
B1: B16 Fab antibody (Fab, V domains shown)
VH: QLQLQQSGPELVKPGASVRMSCKAAGYTFTSYLMHWVKQRPGQDLEWIGYINPYNDGTKYNEKFKDKATLTSDKSSSTVYMELSSLTSEDSAVYYCARSDVYYGVRFAYWGQGTLVTVSA
VL: DIVLTQSPAIMSASPGEKVTMTCSASSSVTYTYWYQQKPGSSPRLLIYDTSNLASGVPVRFSGSGSGTSYSLTISRMEAEDAATYYCQQWSSYPFTFGSGTKLEIK

binding [1]: binds | binding [2]: binds | binding [3]: binds | binding [4]: binds | binding [5]: binds | binding [6]: binds | binding [7]: binds | binding [8]: binds | binding [9]: binds | binding [10]: binds | binding [11]: binds | binding [12]: binds
B2: B16 chimeric antibody (antibody, human IgG1, kappa, V domains shown)
VH: B1 VH
VL: DIVLTQSPAIMSASPGEKVTMTCSASSSVTYTYWYQQKPGSSPRLLIYDTSNLASGVPVRFSGSGSGTSYSLTISRMEAEDAATYYCQQWSSYPFTFGSGTKLEIKR
notes: also called anti-ROR2 monoclonal antibody B16 chimeric antibody; B16 antibody

Reference: patent US20210380688A1 (SHENZHEN UNIVERSITY, published 2021)
